Test results published in PubChem BioAssay AID2517 (National Center for Advancing Translational Sciences (NCATS), 2010).
“And” between values parts separate entries of the source, which are not always exact repeats. Identical values can stand only once. In all, about 350,000 compounds went through this assay and about 1,200 (0.34%) were called active. The inconclusive results got no clear call from the source; some entries with a clear call stand among them for comparison. The call rests on the fitted dose curve; in most records, active means well fitted inhibition curve with a large enough effect; inconclusive means small, poorly fitted or top-dose-only effect; inactive means no such curve, though single readings can be large or run the other way. A potency beside an inconclusive call is a rough fit, not a confirmed value.

Amino acid sequences for entries named in this document (tags omitted).
UniProt P27695, whole entry, looked up: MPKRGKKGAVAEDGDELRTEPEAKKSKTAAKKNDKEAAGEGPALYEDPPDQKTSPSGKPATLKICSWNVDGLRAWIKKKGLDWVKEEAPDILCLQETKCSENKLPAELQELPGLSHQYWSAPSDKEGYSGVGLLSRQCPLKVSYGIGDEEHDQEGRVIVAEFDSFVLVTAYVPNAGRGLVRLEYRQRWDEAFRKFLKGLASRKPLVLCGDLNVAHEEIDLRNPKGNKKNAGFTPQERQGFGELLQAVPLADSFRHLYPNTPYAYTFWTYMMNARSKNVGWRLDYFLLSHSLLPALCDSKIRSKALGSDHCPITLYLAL

biological target: DNA repair nuclease/redox regulator APEX1 (Homo sapiens) (UniProt P27695); experiment: qHTS Assay for Inhibitors of the Human Apurinic/apyrimidinic Endonuclease 1 (APE1); conditions: recombinant APE1, TAMRA/BHQ-2 abasic DNA cleavage fluorescence; activity change, negative = inhibition: at 65.8 µM (top of the series); further: nearly all actives have a fitted effect of over 55% in size;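 on activity change, negative = inhibition: plate controls were vehicle for no effect and reference inhibitor for full effect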
In short: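 Measures dequenching upon AP-site incision of a 5'-TAMRA/3'-BHQ-2 THF-containing duplex, 50 nM; human APE1 0.75 nM after 15 min room-temperature exposure to compound; kinetic three-point read at one-minute spacing.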
Potency means the concentration at half of the fitted maximal effect.

| Compound | activity change, negative = inhibition | Potency |
| --- | --- | --- |
| COCC(=O)N1CCc2nc(-c3ccc(OC)cc3C)c3c(c2C1)CO[C@@H](c1ccccc1)C3 | inactive: -2.72% [at 12.4 µM] |  |
| Cc1ccccc1C(=O)OCC(=O)NCc1ccco1 |  | inconclusive: 15 µM [inhibitor, single point] |
| Cc1noc(C)c1-c1ccc2ncnc(Nc3ccc(F)cc3)c2c1 |  | inconclusive: 44.7 µM [inhibitor, single point] |
| COc1cccc(C2SCC(=O)N2c2ccc(Br)cc2)c1OC (stereo not drawn) |  | inconclusive: 7.94 µM [inhibitor, single point] |
| O=C(O)CC1(Cc2nc(-c3cccs3)no2)CCCC1 |  | inconclusive: 22.4 µM [inhibitor, single point] |
| CCOc1ccc(CCNc2ccc3nnc(-c4ccccc4)n3n2)cc1OCC |  | inconclusive: 3.55 µM [inhibitor, single point] |
| CCC1(C)NC(=O)N(CC(=O)Nc2sc3c(c2C(N)=O)CCC3)C1=O (stereo not drawn) |  | inconclusive: 39.8 µM [inhibitor, single point] |
| Cn1c(NC(=O)c2ccc(F)cc2)nc2ccccc21 | inactive: -3.67% |  |
| O=S(=O)(NCCc1ccccc1)c1ccccc1Br | inactive: 19.9% |  |
| COc1cccc(NC(=O)CC2S/C(=N\S(=O)(=O)c3ccccc3)N(c3ccccc3)C2=O)c1 (stereo not drawn) | inactive: 10.9% |  |
| CCCCn1c(SCC(N)=O)nc2sc3c(c2c1=O)CCC3 | inactive: -9.49% |  |
| CC1Oc2ccccc2C=C1/C=N/Nc1ccc(C(=O)O)cc1 (stereo not drawn) |  | inconclusive: 56.2 µM [inhibitor, partial curve, poor fit] |
| Cc1onc(-c2c(F)cccc2Cl)c1C(=O)OCC(=O)NCc1ccco1 | inactive: -8.87% |  |
| CCc1ccccc1NC(=O)c1cc2sccc2n1C |  | inconclusive: 31.6 µM [inhibitor, single point] |
| COC(=O)c1ccc2c(c1)C(C)(C)C(/C=C/c1ccc(O)cc1)=[N+]2C |  | inconclusive: 8.91 µM [inhibitor, partial curve, poor fit] |
| COc1ccc2oc3cc(C)[n+]([O-])c(-c4ccc(Cl)cc4)c3c2c1 |  | inconclusive: 28.2 µM [inhibitor, partial curve, poor fit] |
| Cc1c(/C(O)=C2\C(=O)C(=O)N(CCN(C)C)C2c2cccs2)cnn1-c1ccccc1 (stereo not drawn) |  | inconclusive: 39.8 µM [inhibitor, single point] |
| CCCCn1c(NC(=O)c2ccco2)c(S(=O)(=O)c2ccc(C)cc2)c2nc3ccccc3nc21 |  | inconclusive: 39.8 µM [inhibitor, single point] |
| COc1ccc(/C=C2\CCn3c2nc2cc(C(=O)O)ccc2c3=O)cc1OC |  | inconclusive: 11.2 µM [inhibitor, partial curve, poor fit] |
| C=CCNC(=O)c1ccc2c3n(nc2c1)-c1ccccc1CO3 |  | inconclusive: 126 µM [inhibitor, partial curve] |
| O=C(COC(=O)COc1ccccc1)NC1CCCc2ccccc21 (stereo not drawn) |  | inconclusive: 44.7 µM [inhibitor, partial curve] |
| CCOC(=O)N/N=C\c1ccc(-c2cccc(C(F)(F)F)c2)o1 |  | inconclusive: 17.8 µM [inhibitor, single point] |
| COC(=O)CC1=NN(c2ccccc2)C(=O)/C1=C\c1ccc(OC)cc1 | inactive: 5.12% |  |

| Compound | activity change, negative = inhibition | Potency |
| --- | --- | --- |
| Cc1ccc(CSc2nnc(-c3ccc(S(=O)(=O)N4CCCC4)cc3)o2)cc1 |  | inconclusive: 39.8 µM [inhibitor, single point] |
| O=C(COC(=O)c1c2c(nc3ccccc13)/C(=C/c1ccco1)CC2)NC1CCCC1 |  | inconclusive: 4.47 µM [inhibitor, partial curve] |
| COC1=C/C(=C/c2c(N)n3nc(-c4ccc(C)cc4)sc3nc2=O)C=CC1=O | inactive: 1.21% |  |
| S=C(Nc1ccc2nsnc2c1)N1CCCCC1 | inactive: -8.89% |  |
| COc1ccc(CCNC(=O)c2cc3c(=O)n4ccccc4nc3n(C3CCCCC3)c2=N)cc1OC | inactive: 5.7% |  |
| O=C(Nc1ccc(Cl)c(Cl)c1)Nc1ccc(N2CCCC2)c(S(=O)(=O)Nc2ccccc2Cl)c1 |  | inconclusive: 35.5 µM [inhibitor, single point] |
| Cc1cccc(OCC(=O)N/N=C/C=C/c2ccco2)c1 | inactive: -2.27% |  |
| O=C1C2=C(C(=O)c3ccccc31)C1O[C@](CCCCN3C(=O)c4ccccc4C3=O)(Cc3c1ccc1ccccc31)O2 |  | inconclusive: 3.44 µM [inhibitor, single point] |
| COc1ccccc1-c1nc(Nc2ccncc2)c2ccccc2n1 |  | inconclusive: 28.2 µM [inhibitor, partial curve, poor fit] |
| COc1ccc(N2CCN(S(=O)(=O)c3ccc(OC)cc3)CC2)cc1 | inactive: 8.09% |  |
| Cc1ccc(NC(=S)NCc2ccccc2)cc1S(=O)(=O)N1CCCCC1 |  | inconclusive: 2.24 µM [inhibitor, full curve, poor fit] |
| C=CCN(C(=O)c1cccc(S(=O)(=O)N2CCN(C)CC2)c1)c1nc(-c2ccccc2)cs1 |  | inconclusive: 35.5 µM [inhibitor, single point] |
| O=C(O)c1ccc(-c2ccc(-c3ccccc3)cc2)s1 |  | inconclusive: 26.7 µM [inhibitor, single point] |
| O=C1c2ccccc2C(=O)N1CC1=NCCc2ccccc21 |  | inconclusive: 0.562 µM [inhibitor, single point] |
| COc1ccc(Cn2c(O)cc(=O)[nH]c2=O)cc1 |  | inconclusive: 39.8 µM [inhibitor, single point] |
| CC(=O)c1nn(-c2cccc(Br)c2)cc1C(=O)c1ccccc1 |  | inconclusive: 0.178 µM [inhibitor, full curve, poor fit] |
| COc1cc(/C=C2\SC(=S)N(NC(=O)c3cccnc3)C2=O)ccc1O |  | inconclusive: 15.8 µM [inhibitor, partial curve] |
| CC(=O)c1cccc(NC(=O)CN(c2ccccc2)S(C)(=O)=O)c1 |  | inconclusive: 25.1 µM [inhibitor, single point] |
| COc1ccc(C(=O)CN2C(=O)c3ccccc3S2(=O)=O)cc1 |  | inconclusive: 3.16 µM [inhibitor, single point] |
| CCOC(=O)c1ccc(N2C(=O)CC(N3CCN(C(=O)c4ccccc4)CC3)C2=O)cc1 (stereo not drawn) |  | inconclusive: 14.1 µM [inhibitor, partial curve, poor fit] |
| CCOC(=O)/C(C#N)=C/c1cccn1-c1ccc(Cl)cc1 | inactive: -2.67% |  |
| COc1ccc(C)cc1NC(=O)COC(=O)Cc1ccc(-c2ccccc2)cc1 | inactive: 0.886% |  |
| Cn1c(SCc2cc([N+](=O)[O-])cc3c2OCOC3)nnc1-c1ccccn1 |  | inconclusive: 7940 µM [inhibitor, partial curve, poor fit] |

| Compound | activity change, negative = inhibition | Potency |
| --- | --- | --- |
| COc1cc(/C=N/NC(=O)Cn2cnc3c2c(=O)n(C)c(=O)n3C)ccc1O |  | inconclusive: 35.5 µM [inhibitor, single point] |
| CC(=O)C(=O)O | inactive: -2.09% |  |
| CCCCNC(=O)C1CCC(CNS(=O)(=O)c2ccc(C)cc2)CC1 (stereo not drawn) | inactive: 6.79% |  |
| Cc1cc(NC(=O)CSc2cn(CCNC(=O)c3ccccc3)c3ccccc23)no1 | inactive: -4.5% |  |
| O=C1[C@H]2[C@H]3[C@H](O)[C@H](O)C/C(=N/OCc4ccccc4)[C@@H]3CC[C@@H]2C(=O)N1C1CCCCC1 | inactive: 9.68% [at 12.4 µM] |  |
| COC(=O)c1cc(C(=O)c2cccc(Cl)c2Cl)cn1C | inactive: -2.91% |  |
| CCC/C=C(\CCC)C(NC(=O)OCC(C)C)c1ccc(C(=O)OC)cc1 (stereo not drawn) |  | inconclusive: 8.91 µM [inhibitor, single point] |
| Cc1ccc(C(=O)O)cc1N=Cc1cc(Br)cc(Br)c1O | inactive: 26% |  |
| COc1cc(CNCCCN2CCOCC2)c(Br)cc1OCC(=O)Nc1ccccc1C |  | inconclusive: 0.178 µM [inhibitor, full curve, poor fit] |
| O=C(c1ccc(COc2ccccc2[N+](=O)[O-])o1)N1CCCCC1 | inactive: -0.983% |  |
| Cc1cc(C)cc(NC(=O)COC(=O)CCC2CCCC2)c1 | inactive: -14.1% |  |
| COC(=O)c1cn[nH]c1NC(=S)Nc1ccc(C)cc1Cl |  | inconclusive: 39.8 µM [inhibitor, single point] |
| Cc1ccc(NC(=O)C/C(N)=N/O)cc1Cl |  | inconclusive: 7.94 µM [inhibitor, single point] |
| CCOc1ccc(C(=O)c2ccc(OCC)c(N)c2)cc1N | inactive: 0.568% |  |
| O=C(O)/C=C/c1ccc(S(=O)(=O)NCc2ccco2)cc1 |  | inconclusive: 39.8 µM [inhibitor, single point] |
| O=C(Nc1cccc(OC(=O)c2ccco2)c1)c1ccco1 |  | inconclusive: 0.562 µM [inhibitor, full curve, poor fit] |
| O=C(NC1(C(F)(F)F)N=C2SCCN2C1=O)c1cccnc1 (stereo not drawn) |  | inconclusive: 3.16 µM [inhibitor, partial curve] |
| O=C(Cc1ccc(Cl)cc1Cl)Nc1cccc(S(=O)(=O)Nc2ccccc2F)c1 |  | inconclusive: 0.0045 µM [inhibitor, full curve, poor fit] |
| O=C(NO)c1ccccc1O | inactive: 9.16% |  |
| CCN(CC)S(=O)(=O)c1cccc(NC(=O)COC(=O)CCC(=O)c2ccc(F)cc2)c1 |  | inconclusive: 17.8 µM [inhibitor, partial curve] |
| COC(=O)C/C=C/[C@@H](C)[C@@H](/C=N/OC[C@H]1O[C@H](c2ccccc2)C=C[C@@H]1Oc1ccc(OC)cc1)NS(=O)(=O)c1ccc(C)cc1 |  | inconclusive: 35.5 µM [inhibitor, single point] |
| COc1ccc(OC2C(O)COC2/C=C/C#Cc2ccc(F)cc2F)cc1 (stereo not drawn) |  | inconclusive: 8.91 µM [inhibitor, single point] and inconclusive: 4.47 µM [inhibitor, single point] |
